# Article PMC12209456, “Serine/threonine/tyrosine kinase 1 drives pancreatic carcinogenesis via GSK3β sequestration-mediated Wnt/β-catenin pathway hyperactivation” (Signal Transduction and Targeted Therapy, 2025)
# Protein sequences, listed by entry. Tags and fused reporters are not part of them.
# UniProt Q96CW1: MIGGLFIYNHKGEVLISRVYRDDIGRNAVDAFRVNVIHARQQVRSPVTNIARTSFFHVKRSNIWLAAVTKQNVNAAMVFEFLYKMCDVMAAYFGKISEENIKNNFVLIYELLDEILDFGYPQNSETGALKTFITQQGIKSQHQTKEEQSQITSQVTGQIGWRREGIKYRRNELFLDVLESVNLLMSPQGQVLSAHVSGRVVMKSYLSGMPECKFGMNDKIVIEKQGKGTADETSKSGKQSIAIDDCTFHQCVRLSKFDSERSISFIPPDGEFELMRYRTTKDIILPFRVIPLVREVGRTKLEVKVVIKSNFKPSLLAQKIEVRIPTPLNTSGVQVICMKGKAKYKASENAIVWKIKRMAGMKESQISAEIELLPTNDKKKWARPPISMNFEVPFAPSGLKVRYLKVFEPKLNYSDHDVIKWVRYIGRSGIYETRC
# Residue numbers refer to the chain shown, from its start. Results are given in words; binding and its absence hold for the method and conditions named. In cells and extracts the contact can be indirect. For some of these results: Binding calls can cover weak binding; strength is not graded here. For some of these results: Sequences can lack the tags named with a protein.
# Key:
# Assay in all cases: co-IP; Flag-tagged AP1/2 μ subunits with HA-tagged STYK1 wild type or SS1, SS2, SS3 mutants
# [1] = target: T1, HA-tagged wild-type STYK1 (UniProt Q6J9G0)
# T1 sequence: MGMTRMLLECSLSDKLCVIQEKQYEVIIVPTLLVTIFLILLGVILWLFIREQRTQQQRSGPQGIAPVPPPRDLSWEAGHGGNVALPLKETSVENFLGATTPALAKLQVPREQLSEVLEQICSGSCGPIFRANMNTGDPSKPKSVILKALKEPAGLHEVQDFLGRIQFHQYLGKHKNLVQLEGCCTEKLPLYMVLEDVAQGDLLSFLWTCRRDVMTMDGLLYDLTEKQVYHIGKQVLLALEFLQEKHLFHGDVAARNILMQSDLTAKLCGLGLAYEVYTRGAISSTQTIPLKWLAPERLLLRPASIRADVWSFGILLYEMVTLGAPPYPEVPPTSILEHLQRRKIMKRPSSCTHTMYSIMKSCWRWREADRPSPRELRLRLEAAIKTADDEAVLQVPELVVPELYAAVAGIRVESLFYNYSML
# [2] = target: T2, HA-tagged STYK1 SS1 mutant (Y191/L194 mutated to alanine) (UniProt Q6J9G0)
# T2 sequence: T1 sequence with Y191A, L194A
# [3] = target: HA-tagged STYK1 SS3 mutant (L199/L220 mutated to alanine) (UniProt Q6J9G0)
# [4] = target: HA-tagged STYK1 SS2 mutant (L203/L204 mutated to alanine) (UniProt Q6J9G0)
binding [1],binding [2],binding [3],binding [4],Substance
binds,no binding,,,Flag-tagged AP1 μ subunit
,,binds,no binding,Flag-tagged AP2 μ subunit (from UniProt Q96CW1 1-435)
